# Experimental data: PubChem BioAssay AID1347076 (National Center for Advancing Translational Sciences (NCATS), 2019)
# The campaign covered roughly 400,000 compounds. About 13,000 (3.2%) were called active. Inconclusive means that the source gave no clear call. Such entries were picked first, then a sample of the others. The call rests on the fitted dose curve; in most records, active means well fitted cell-killing curve with a large enough effect; inconclusive means small, poorly fitted or top-dose-only effect, or effect the other way; inactive means flat fitted curve, though single readings scatter. Potencies of inconclusive entries are doubtful fits and often do not repeat.
# Assay: qHTS assay for MDR1-selective chemotherapeutics: Primary screen using the drug-selected MDR subline cells KB-V1; further: nearly all actives have a fitted effect of over 60% in size
# Settings: KB-V1 MDR cells viability, CellTiter-Glo, 72 h; series mostly up to 46.1 µM
# Summary of the method: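 In this primary screen, KB-V1 cells overexpressing P-gp are incubated with library compounds (lowest to highest concentration) for 72 h at 37 degrees C before a luminescent ATP viability read.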
# Potency means the concentration at half of the fitted maximal effect.
row,Structure (SMILES),Potency
1,CCC(CC)C(=O)c1c[nH]c(C(=O)NCc2ccccn2)c1,"inconclusive: 16.4 µM [cytotoxic, single point]"
2,Cc1c(C(=O)NCc2n[nH]c(=S)n2-c2ccc(F)cc2)cccc1[N+](=O)[O-],"inconclusive: 29.1 µM [rising, single point]"
3,COc1ccc(C(=O)N2CCN(c3nc(C4CC4)nc4sc(C)c(C)c34)CC2)cc1,active: 23.1 µM
4,O=C1C(Cl)=C(Nc2ccc3cn[nH]c3c2)C(=O)c2ccccc21,"inconclusive: 8.2 µM [cytotoxic, partial curve, poor fit]"
5,COc1ccccc1NCc1cccn1-c1nnc(N2CCCCCC2)s1,"inconclusive: 18.4 µM [cytotoxic, single point]"
6,O=S(=O)(NCc1csc(-c2cccs2)n1)c1cccc(C(F)(F)F)c1,inactive
7,O=C(NCCc1ccccn1)C1CCCN1S(=O)(=O)c1ccc(Cl)cc1 (stereo not given),"inconclusive: 13 µM [cytotoxic, partial curve]"
8,Nc1nc2ccc(Cl)cc2cc1C(=O)NCCc1ccc(O)cc1,"inconclusive: 20.6 µM [cytotoxic, partial curve]"
9,COCCCN(C(C)=O)c1nc(-c2ccc(OC)cc2)cs1,active: 7.31 µM
10,O=C(CCCN1C(=O)/C(=C/c2cccs2)SC1=S)NNC(=O)c1ccncc1,inactive
11,COc1ccc(NC(=O)CSc2ccc(-c3ccco3)nn2)c(OC)c1,"inconclusive: 3.66 µM [cytotoxic, partial curve, poor fit]"
12,CCOc1cc(N)c(Cl)cc1C(=O)NCC1CN(Cc2ccc(F)cc2)CCO1 (stereo not given),"inconclusive: 13 µM [cytotoxic, partial curve, poor fit]"
13,O=C(Cc1ccccc1)Nc1cc(C(=O)c2ccccc2)ccc1N1CCOCC1,"inconclusive: 11.2 µM [cytotoxic, single point]"
14,COC(=O)c1ccccc1NC(=O)c1sc(N)nc1C,"inconclusive: 14.6 µM [cytotoxic, partial curve, poor fit]"
15,Cc1cccc(OCC(=O)Nc2c(C(=O)N3CCN(c4ccccc4F)CC3)oc3ccccc23)c1,inactive
16,CCOc1ccc(S(=O)(=O)Nc2ccc3oc(C)c(C(=O)OC(C)C)c3c2)cc1,active: 13 µM
17,O=C(Nc1ccc(F)c(Cl)c1)C1CCN(S(=O)(=O)c2ccc3[nH]c(=O)ccc3c2)CC1,"inconclusive: 6.51 µM [rising, full curve, poor fit]"
18,O=C(COc1ccc(Br)cc1F)NC1CCN(Cc2ccccc2)CC1,inactive
19,CC(C)C(NC(=O)c1ccccc1F)C(=O)NCc1ccccc1 (stereo not given),"inconclusive: 20.6 µM [cytotoxic, single point]"
20,CCCCNc1nc2c(c(=O)n(C)c(=O)n2C)n1CC(O)COc1ccccc1C (stereo not given),inactive
21,CCOc1cc(-c2conc2N)cc(OCC)c1OCC,"inconclusive: 29.1 µM [cytotoxic, single point]"
22,Cc1cc(C(=O)N2CCN(Cc3ccc4c(c3)OCO4)CC2)cs1,active: 14.6 µM
23,CC1=C(C(=O)Nc2ccc(C(=O)NCCCN3CCCCC3)cc2)SCCO1,"inconclusive: 29.1 µM [rising, single point]"

# Part of the list above, tab-delimited:
row	Structure (SMILES)	Potency
9	COCCCN(C(C)=O)c1nc(-c2ccc(OC)cc2)cs1	active: 7.31 µM
10	O=C(CCCN1C(=O)/C(=C/c2cccs2)SC1=S)NNC(=O)c1ccncc1	inactive

# Continued.

row,Structure (SMILES),Potency
1,O=C(NCc1ccccc1)c1cc(S(=O)(=O)N2CCCCC2)ccc1N1CCOCC1,"inconclusive: 14.6 µM [cytotoxic, partial curve]"
2,Cc1ccc(CC2CC(=O)N(CCc3ccccc3)C2=O)cc1 (stereo not given),"inconclusive: 18.4 µM [cytotoxic, single point]"
3,COc1ccc(-c2cc3nc(-c4ccccc4)cc(N4CCN(C(=O)c5ccoc5)CC4)n3n2)cc1,"inconclusive: 29.1 µM [cytotoxic, single point]"
4,CCOC(=O)c1c(C)[nH]c(C(=O)Cn2nnc(-c3ccccc3Cl)n2)c1C,inactive
5,CNC(=O)NC(=O)CSc1nc(-c2cccs2)c(C#N)c(=O)[nH]1,"inconclusive: 29.1 µM [rising, single point]"
6,C/C(=C\c1ccccc1)C(=O)NCCN1CCOCC1,inactive
7,Cc1ccc(C(=O)Nc2nc3n(n2)C(c2ccc(F)cc2)C=C(c2ccccc2)N3)cc1 (stereo not given),inactive
8,CCOC(=O)c1c(NC(=O)c2ccc(Br)cc2)sc2c1CCCC2,"inconclusive: 6.51 µM [rising, full curve, poor fit]"
9,O=C(O)c1cccc(Nc2ncnc3ccc(Br)cc23)c1,"inconclusive: 5.8 µM [rising, full curve, poor fit]"
10,CCOc1ccc(/C=C/c2cc[n+](C)c3ccccc23)cc1OCC,inactive
11,O=C1CCCCC1C(Nc1ccc(Br)cc1)c1ccccc1 (stereo not given),inactive
12,O=C(CCNC(=O)c1ccc(Cl)cc1)NC1CCCc2ccccc21 (stereo not given),"inconclusive: 4.61 µM [cytotoxic, full curve]"
13,Cc1cc(OC(F)F)ccc1NC(=S)NCCc1ccccc1,"inconclusive: 29.1 µM [cytotoxic, single point]"
14,Cc1ccsc1/C=N/NC(=S)NCc1ccccc1,"inconclusive: 10.3 µM [cytotoxic, partial curve]"
15,O=C1C=C(c2ccc3ccccc3c2)C[C@@H](c2ccc(Cl)cc2)C1,"inconclusive: 20.6 µM [cytotoxic, single point]"
16,CCOC(=O)c1c(-c2ccc(OC)cc2)csc1/N=C/N(C)C,active: 23.1 µM
17,CCc1ccc(C(=O)COC(=O)c2n[nH]c3ccccc23)cc1,"inconclusive: 18.4 µM [cytotoxic, single point]"
18,CC(C)N(C(=O)CSc1nnc(Cn2nnc3ccccc32)n1C)C(C)C,inactive
19,CCC(C)NC(=O)CS(=O)Cc1nc(-c2cccc(OC)c2)oc1C (stereo not given),"inconclusive: 29.1 µM [rising, partial curve, poor fit]"
20,O=C(c1ccc(Cl)c(S(=O)(=O)N2CCOCC2)c1)N1CCN(c2ccccc2)CC1,"inconclusive: 13 µM [cytotoxic, partial curve, poor fit]"
21,Cn1c(SCCOc2ccccc2F)nc2ccccc2c1=O,"inconclusive: 23.1 µM [cytotoxic, single point]"
22,CCC(C)n1c(SCC(=O)N(CC)c2c(N)n(Cc3ccccc3)c(=O)[nH]c2=O)nc2ccccc2c1=O (stereo not given),"inconclusive: 32.6 µM [rising, partial curve, poor fit]"
